Key:
[1] = Therapeutic index (MHC / mean IC50); details: for TI: ratio of MHC to mean IC50; for TI (fold conversion): relative to PL-AC-15
SK-hep1 liver tumors = experiment: Transplanted tumor in nude mice, intraperitoneal, SK-hep1; type: in vivo; details: SK-hep1 tumor-bearing BALB/c mice, 5 mg/kg group
Description: BALB/c nude mice were used to inoculate Bel-7402, HepG-2 and SK-hep1 liver tumors according to the transplanted tumor research method under aseptic operation, and the cell density was not less than 5×10^6/ml, 0.2 ml was inoculated subcutaneously in the axilla of the right hind limb of each mouse. After the cells were inoculated, the cells were administered intraperitoneally (concentration: 5 mg/kg), once every 3 days, for a total of 8 administrations. After the 2nd day of drug withdrawal, all tumor-bearing mice were sacrificed, and their body weight, tumor weight and tumor inhibition were weighed.

Structure (SMILES) | TI [1] | TI (fold conversion) [1] | Body Weight Before administration (SK-hep1 liver tumors) [g]
CC1(C)CC(NC(=O)C(Cc2ccc(-c3ccccc3)cc2)NC(=O)Cc2ccccc2Nc2c(Cl)cccc2Cl)CC(C)(C)N1 (stereo not shown) [PL-AC-203] | 110043.4 |  | 
CC(=O)Oc1ccccc1C(=O)NC(Cc1ccc(-c2ccccc2)cc1)C(=O)NC1CC(C)(C)NC(C)(C)C1 (stereo not shown) [PL-AC-201] | 206758.2 | 4 | 19.1 ± 1.4
COc1ccc2c(c1)c(CC(=O)NC(Cc1ccc(-c3ccccc3)cc1)C(=O)NC1CC(C)(C)NC(C)(C)C1)c(C)n2C(=O)c1ccc(Cl)cc1 (stereo not shown) [PL-AC-205] | 165149.4 | 3 | 19.0 ± 1.7
C/C(=C1/c2ccc(F)cc2C(CC(=O)NC(Cc2ccc(-c3ccccc3)cc2)C(=O)NC2CC(C)(C)NC(C)(C)C2)C1C)c1ccc([S+](C)[O-])cc1 (stereo not shown) [PL-AC-204] | 145732.3 | 3 | 
COc1ccc2cc(C(C)C(=O)NC(Cc3ccc(-c4ccccc4)cc3)C(=O)NC3CC(C)(C)NC(C)(C)C3)ccc2c1 (stereo not shown) [PL-AC-202] | 211563.8 |  | 
CC1(C)CC(NC(=O)C(Cc2ccc(-c3ccccc3)cc2)NC(=O)c2cc3ccccc3n2Cc2ccccc2)CC(C)(C)N1 (stereo not shown) [PL-AC-15, reference compound] | 50983.88 | 1 | 18.9 ± 0.7

Reference: patent US12552747B2, “Amino acid derivative containing non-steroidal anti-inflammatory drug structure and preparation method and application thereof” (priority 2020, dated 2026)
